In paper PMC11304259:
Construct, isoform or probe ends are uncertain for at least one entry.

Tested on: GST-GhWRKY40a
Test: EMSA
Conditions: reduced by unlabeled same-sequence competitor; Beyotime Chemiluminescent EMSA Kit; pH and temperature not stated; recombinant protein; protein details: N-terminal GST (pGEX-4T-2); label: biotin

Q: Does “AATATTCTTTAATGGACTATTGACTTTATTCCGAACTTATCCAAAAGGTT (double strand) [ProGhERF1b EMSA probe]” bind?
A: binds

Q: Does “GGCTTAGTGACTAAAATGTTACAACACGATAACGTAAGTGACTAAAACGT (double strand) [ProGhABF2 EMSA probe]” bind?
A: binds
